This passage reports mTLR9 reporter activity results from the supplement of paper PMC6924143.

For this series, the system named is RAW-Blue (mouse TLR9 reporter, RAW 264.7). In words: mTLR9 reporter activity (SEAP, QUANTI-Blue absorbance) (OD650); higher = stronger mouse TLR9 activation. The following applies: 3 h. As to the method: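 Synthetic single-stranded 24-mer CpG ODNs were diluted in saline and added to mouse RAW-Blue cells (RAW 264.7 with an NF-kB/AP-1-inducible SEAP reporter; endogenous mouse TLR9), about 1e5 cells/well. After 3 h, SEAP in the supernatant was read with QUANTI-Blue as absorbance at 650 nm. ODN concentration and backbone chemistry are not stated; activity of 0.4 or above is the paper's high-activity class.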

The data scatter; read single values as rough.

TACGCGTCGAGTCACGTCGTCGTT [ODN110] registered a mTLR9 reporter activity of 0.12.
The value for TACGTGTCGACGCGCAGATGTCTT [ODN093] was 0.24.
To TAGCTTTTGCGTCGCGTGCGTTTT [ODN001] belongs 0.447; to TAGTCGCGCTCGCGCGTGCTTCGT [ODN198], 0.133; to TAGTCGTTCGTTCGCGTTCGCTGT [ODN249], 0.306.
TATACACGTTGAGCGCGTTGTGTT [ODN088] displayed a mTLR9 reporter activity of 0.455.
TATCGCAGTTGACGTGTGCGAGTT [ODN064] displayed a mTLR9 reporter activity of 0.203.
With TATGTCGCGTGCGCGTTTTGTTTT [ODN060], the mTLR9 reporter activity was 0.212.
To TCACGGGCGGTTAGCCGCCGTTCA [mODN-006] belongs 0.14; to TCAGAGCGAGTTGTTCTACGTGTT [ODN068], 0.163.
For the sequence TCAGGCCCGCGCTTCGTTGCGCGT [mODN-007], the mTLR9 reporter activity stood at 0.34.
TCAGTGCGCTGCGCGTCTCGTTGT [ODN143] yielded a mTLR9 reporter activity of 0.167.
The value for TCATCCCGGTTACGCGGGCTTCGA [mODN043] was 0.26; that for TCCCCGATTCGCGGCGGATTACCG [mODN050] was 0.34.
To TCCCGAGGCCGTTACGTCCGTTGC [mODN045] belongs 0.47; to TCCCGCATTAGCCGCGGGTGCGTT [mODN101], 0.4.
The value for TCCCGCGGTGCGTCGCGATTCTTA [mODN71] was 0.47; that for TCCCGTCGTATTGCCCGGCCGTTG [mODN100] was 0.48; that for TCCCGTTCGTGGGCGTTACCGCCG [mODN-019] was 0.36.
Sequence TCCCGTTTCGTTGGCTCGCACGGG [mODN81] came in with a mTLR9 reporter activity of 0.48.
In the case of TCCCGTTTGCGCGGTCCGACGCTT [mODN82], the mTLR9 reporter activity was 0.51.
The value for TCCCTCATTCGTTGCGGCCGGCGG [mODN96] was 0.58.
TCCGACGTTCCGTTGGCGACGCGG [mODN95] yielded a mTLR9 reporter activity of 0.87.
To TCCGAGATTGCCACGTTGCGGCCG [mODN-017] belongs 0.18; to TCCGCCGTTCGGCCAGTTGTACGG [mODN068], 0.52; to TCCGCGCCCGGTTCCGGTTCATGT [mODN102], 0.45.
Turning to TCCGCGCGCCCGCGGGTTCCTTAC [mODN-015], the mTLR9 reporter activity was 0.26.
The value for TCCGCGGCGCACTTGTTCGACGAC [mODN053] was 0.43; that for TCCGCGGCGCCTTGACCGTTGACG [mODN-022] was 0.14.
The sequence TCCGCGGCTTCGCGGGCGTTACTT [mODN058] displayed a mTLR9 reporter activity of 0.39.
The value for TCCGCGGCTTGGACCACTTCGCGT [mODN066] was 0.35; that for TCCGCGTTCTTGCGGCTAGGCGAC [mODN033] was 0.63; that for TCCGCTCCGGATTCGCTTGCAGCG [mODN90] was 0.47.
With TCCGCTTCGGGCGACCGCTTGTCA [mODN036], the mTLR9 reporter activity was found to be 0.24.
The sequence TCCGGCTGTTCGCGTGGCACGTTC [mODN91] gave a mTLR9 reporter activity of 0.55.
The value for TCCGGGCGGCGCGTTCCCCACGTT [mODN-026] was 0.32; that for TCCGGTTCGCGTATAGCCCGCGTT [mODN-014] was 0.14.
The value for TCCGTCCTCGGTTACGCGGGCTTC [mODN062] was 0.47; that for TCCGTTCCCGGACGCGGTCCGGTT [mODN070] was 0.47; that for TCCGTTCTCGCGCGTTGGGCTCCG [mODN061] was 0.56.
TCCGTTGGCGCCGGGGCGCCCCTT [mODN-012]: the mTLR9 reporter activity was found to be 0.32.
To TCCTCGGTTTATTCGGACGCGCGC [mODN034] belongs 0.55.
